Article PMC4775226, “Active and water-soluble form of lipidated Wnt protein is maintained by a serum glycoprotein afamin/α-albumin” (eLife, 2016)
No constants are given. Whether binding was seen depends on the method and setting. Binding seen in cells or lysates may run through a third protein. A result given as binding can be weak or reduced; the word gives no strength. Sequences can lack the tags named with a protein.

Target: T1, Tg-tagged human afamin (human) (UniProt P43652)
T1 sequence: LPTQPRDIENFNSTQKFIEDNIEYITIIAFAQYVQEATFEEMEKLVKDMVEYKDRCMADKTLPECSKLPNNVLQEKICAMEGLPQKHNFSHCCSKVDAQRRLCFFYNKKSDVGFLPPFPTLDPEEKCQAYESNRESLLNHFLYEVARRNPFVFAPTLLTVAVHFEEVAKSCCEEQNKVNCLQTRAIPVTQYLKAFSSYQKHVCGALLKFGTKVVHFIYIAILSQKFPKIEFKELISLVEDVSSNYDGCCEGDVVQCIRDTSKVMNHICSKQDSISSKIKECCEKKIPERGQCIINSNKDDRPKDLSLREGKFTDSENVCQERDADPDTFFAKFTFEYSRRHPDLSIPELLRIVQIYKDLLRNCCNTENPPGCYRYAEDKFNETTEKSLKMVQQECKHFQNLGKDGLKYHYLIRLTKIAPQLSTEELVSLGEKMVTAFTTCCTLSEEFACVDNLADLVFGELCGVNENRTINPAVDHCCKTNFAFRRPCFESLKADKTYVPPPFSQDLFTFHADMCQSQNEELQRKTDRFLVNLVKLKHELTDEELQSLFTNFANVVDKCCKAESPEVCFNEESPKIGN
Assay: co-IP; anti-Tg antibody P20.1-Sepharose, serum-free culture media of Expi293F cells co-transfected with Tg-hAFM and PA-tagged human Wnts; immunoblot with biotinylated NZ-1

Substance: PA-tagged human Wnt2b
- binding: binds
